This is an account of results in article PMC9629621.

By UniProt entry, the sequences of proteins in these tests, tags left out.
UniProt P10591: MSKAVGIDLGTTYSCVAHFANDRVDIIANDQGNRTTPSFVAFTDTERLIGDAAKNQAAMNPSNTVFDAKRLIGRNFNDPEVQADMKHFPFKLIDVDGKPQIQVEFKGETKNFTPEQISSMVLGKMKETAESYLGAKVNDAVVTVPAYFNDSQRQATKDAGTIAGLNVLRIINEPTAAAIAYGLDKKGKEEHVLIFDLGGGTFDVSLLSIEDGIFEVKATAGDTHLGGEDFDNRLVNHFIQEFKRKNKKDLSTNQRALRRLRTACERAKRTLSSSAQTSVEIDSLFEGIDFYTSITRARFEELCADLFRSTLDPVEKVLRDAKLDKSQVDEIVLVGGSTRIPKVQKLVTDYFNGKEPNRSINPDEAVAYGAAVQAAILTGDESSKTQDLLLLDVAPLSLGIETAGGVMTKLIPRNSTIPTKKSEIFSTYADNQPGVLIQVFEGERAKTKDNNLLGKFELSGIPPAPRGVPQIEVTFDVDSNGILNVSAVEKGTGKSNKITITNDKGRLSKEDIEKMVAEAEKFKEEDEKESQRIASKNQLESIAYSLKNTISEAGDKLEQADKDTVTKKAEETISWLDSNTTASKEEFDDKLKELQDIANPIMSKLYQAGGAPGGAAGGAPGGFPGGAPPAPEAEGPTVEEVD
UniProt P47079: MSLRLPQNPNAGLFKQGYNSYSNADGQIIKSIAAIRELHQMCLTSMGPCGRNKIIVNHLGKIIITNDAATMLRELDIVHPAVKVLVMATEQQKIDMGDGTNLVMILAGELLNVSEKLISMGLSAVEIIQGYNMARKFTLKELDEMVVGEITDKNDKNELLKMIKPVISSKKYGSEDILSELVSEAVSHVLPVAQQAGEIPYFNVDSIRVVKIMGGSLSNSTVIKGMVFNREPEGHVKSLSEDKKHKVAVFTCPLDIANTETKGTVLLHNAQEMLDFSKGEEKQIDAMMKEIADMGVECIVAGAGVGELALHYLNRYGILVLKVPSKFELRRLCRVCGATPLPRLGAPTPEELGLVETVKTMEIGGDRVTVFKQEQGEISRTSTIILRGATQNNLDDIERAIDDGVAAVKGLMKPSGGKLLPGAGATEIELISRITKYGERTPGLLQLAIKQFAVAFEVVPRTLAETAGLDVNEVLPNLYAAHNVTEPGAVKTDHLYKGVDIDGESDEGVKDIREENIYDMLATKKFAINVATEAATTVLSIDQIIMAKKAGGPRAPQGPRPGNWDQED
UniProt P25491: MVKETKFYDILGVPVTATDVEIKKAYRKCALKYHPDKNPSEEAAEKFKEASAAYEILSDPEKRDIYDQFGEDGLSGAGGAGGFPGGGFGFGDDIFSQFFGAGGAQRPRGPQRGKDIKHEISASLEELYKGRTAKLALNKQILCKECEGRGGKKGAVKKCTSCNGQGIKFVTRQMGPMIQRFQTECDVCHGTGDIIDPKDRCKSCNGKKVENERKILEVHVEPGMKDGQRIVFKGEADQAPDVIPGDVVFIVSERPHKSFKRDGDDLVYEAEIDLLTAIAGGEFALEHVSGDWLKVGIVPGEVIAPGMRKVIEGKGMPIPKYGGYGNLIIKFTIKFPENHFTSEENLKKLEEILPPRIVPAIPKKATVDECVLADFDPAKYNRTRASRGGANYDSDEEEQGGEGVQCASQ

No constants are given. Whether binding was seen depends on the method and setting. Binding seen in cells or lysates may run through a third protein. Here binding means that the protein was enriched with, or labelled near, the bait; the list need not be complete.

The test has as its target HIS-tagged Ssa1 (yeast Hsp70) (S. cerevisiae) (UniProt P10591). As to the kind of experiment: affinity purification with mass spectrometry; HIS-Ssa1 complexes purified from yeast (His-Trap), with or without DSSO; all proteins identified by HCD shotgun proteomics; ATP not replenished.

Turning to “Cct8 (endogenous) (from UniProt P47079 1-568)”, the binding entry is recorded as “binds”.
The same measure for “Ydj1 co-chaperone (from UniProt P25491 1-409)”: “binds”.

B1: Sse1 (endogenous) (protein, UniProt P32589 1-693)
chain: MSTPFGLDLGNNNSVLAVARNRGIDIVVNEVSNRSTPSVVGFGPKNRYLGETGKNKQTSNIKNTVANLKRIIGLDYHHPDFEQESKHFTSKLVELDDKKTGAEVRFAGEKHVFSATQLAAMFIDKVKDTVKQDTKANITDVCIAVPPWYTEEQRYNIADAARIAGLNPVRIVNDVTAAGVSYGIFKTDLPEGEEKPRIVAFVDIGHSSYTCSIMAFKKGQLKVLGTACDKHFGGRDFDLAITEHFADEFKTKYKIDIRENPKAYNRILTAAEKLKKVLSANTNAPFSVESVMNDVDVSSQLSREELEELVKPLLERVTEPVTKALAQAKLSAEEVDFVEIIGGTTRIPTLKQSISEAFGKPLSTTLNQDEAIAKGAAFICAIHSPTLRVRPFKFEDIHPYSVSYSWDKQVEDEDHMEVFPAGSSFPSTKLITLNRTGDFSMAASYTDITQLPPNTPEQIANWEITGVQLPEGQDSVPVKLKLRCDPSGLHTIEEAYTIEDIEVEEPIPLPEDAPEDAEQEFKKVTKTVKKDDLTIVAHTFGLDAKKLNELIEKENEMLAQDKLVAETEDRKNTLEEYIYTLRGKLEEEYAPFASDAEKTKLQGMLNKAEEWLYDEGFDSIKAKYIAKYEELASLGNIIRGRYLAKEEEKKQAIRSKQEASQMAAMAEKLAAQRKAEAEKKEEKKDTEGDVDMD
Turning to B1, the binding entry is reported as “binds”.
